± gives the standard deviation of the averaged measurements. Values are relative to the signal before dosing, not to a vehicle control; the signal also falls without drug.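 Labels refer to human fibroblasts, largely primary: uterine (C12385, HUF), lung (H6013), bone (Hs27A), adrenal (HADF), skin (WS1), plus mammary HMF and breast cancer-associated Hs343T. Cancer lines are basal-like or mesenchymal-like triple-negative breast cancer. The paper counts as hits responses shifting over 3x the replicate standard deviation. The tissue of the other fibroblasts is not given here.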
Test system: Hs578T
Assay: relative JC-1 red fluorescence (viability) vs pre-drug, coculture with fibroblast (fraction); higher = more viable cancer cells
Experimental: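 JC-1 labelled TNBC cells cocultured 1:1 (1,500 cells each) with CellTrace Violet stained primary or stromal fibroblasts in 384-well plates in FluoroBrite medium, treated with one of 42 anticancer drugs at 0.1, 1, 10 or 100 uM. JC-1 red fluorescence (mitochondrial integrity in cancer cells only) was read by plate reader every 8 h for 72 h. Values are normalised to each well's pre-drug value. The stock of one drug was tenfold lower, so its dose labels may be too high.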

CC[C@]1(O)C[C@@H]2CN(CCc3c([nH]c4ccccc34)[C@@](C(=O)OC)(c3cc4c(cc3OC)N(C)[C@H]3[C@@](O)(C(=O)OC)[C@H](OC(C)=O)[C@]5(CC)C=CCN6CC[C@]43[C@@H]65)C2)C1 [Vinblastine]
relative JC-1 red fluorescence
Details | 8 h | 16 h | 24 h | 32 h | 40 h | 48 h | 56 h | 64 h | 72 h
0.1 µM | 0.8683 ± 0.0068 | 0.788 ± 0.024 | 0.712 ± 0.031 | 0.651 ± 0.044 | 0.571 ± 0.049 | 0.536 ± 0.032 | 0.516 ± 0.031 | 0.485 ± 0.037 | 0.482 ± 0.038
1 µM | 0.852 ± 0.031 | 0.775 ± 0.014 | 0.7454 ± 0.0033 | 0.702 ± 0.016 | 0.642 ± 0.029 | 0.599 ± 0.018 | 0.585 ± 0.015 | 0.558 ± 0.024 | 0.556 ± 0.027

relative JC-1 red fluorescence
Details | 8 h | 16 h | 24 h | 32 h | 40 h | 48 h | 56 h | 64 h | 72 h
0.1 µM, coculture fibroblast: C12385 | 0.833 ± 0.045 | 0.7247 ± 0.0027 | 0.699 ± 0.014 | 0.58 ± 0.011 | 0.508 ± 0.029 | 0.482 ± 0.022 | 0.459 ± 0.014 | 0.465 ± 0.015 | 0.47 ± 0.016
0.1 µM, coculture fibroblast: H6013 | 0.85088 ± 0.00059 | 0.8395 ± 0.0045 | 0.7971 ± 0.0031 | 0.749 ± 0.016 | 0.708 ± 0.019 | 0.689 ± 0.022 | 0.682 ± 0.023 | 0.686 ± 0.024 | 0.667 ± 0.017
0.1 µM, coculture fibroblast: H6019 | 0.802 ± 0.0095 | 0.705 ± 0.042 | 0.68 ± 0.057 | 0.596 ± 0.05 | 0.553 ± 0.031 | 0.532 ± 0.033 | 0.511 ± 0.023 | 0.507 ± 0.024 | 0.494 ± 0.031
0.1 µM, coculture fibroblast: H6076 | 0.8894 ± 0.0024 | 0.806 ± 0.0087 | 0.746 ± 0.024 | 0.703 ± 0.024 | 0.637 ± 0.021 | 0.636 ± 0.025 | 0.621 ± 0.027 | 0.616 ± 0.024 | 0.619 ± 0.025
0.1 µM, coculture fibroblast: H6231 | 0.929 ± 0.03 | 0.823 ± 0.032 | 0.7299 ± 0.0051 | 0.657 ± 0.024 | 0.574 ± 0.021 | 0.539 ± 0.028 | 0.49 ± 0.034 | 0.471 ± 0.037 | 0.46 ± 0.043
0.1 µM, coculture fibroblast: HADF | 0.85 ± 0.055 | 0.788 ± 0.027 | 0.717 ± 0.016 | 0.64 ± 0.0066 | 0.596 ± 0.014 | 0.571 ± 0.017 | 0.544 ± 0.019 | 0.543 ± 0.019 | 0.527 ± 0.019
0.1 µM, coculture fibroblast: HCFa | 0.8247 ± 0.00087 | 0.777 ± 0.011 | 0.705 ± 0.013 | 0.617 ± 0.013 | 0.5437 ± 0.0013 | 0.5 ± 0.0073 | 0.464 ± 0.012 | 0.447 ± 0.017 | 0.414 ± 0.03
0.1 µM, coculture fibroblast: HCPF | 0.895 ± 0.018 | 0.833 ± 0.035 | 0.802 ± 0.054 | 0.756 ± 0.05 | 0.67 ± 0.061 | 0.628 ± 0.055 | 0.597 ± 0.045 | 0.559 ± 0.037 | 0.541 ± 0.05
0.1 µM, coculture fibroblast: HHSteC | 0.867 ± 0.011 | 0.802 ± 0.033 | 0.728 ± 0.028 | 0.649 ± 0.044 | 0.594 ± 0.045 | 0.552 ± 0.048 | 0.53 ± 0.04 | 0.508 ± 0.037 | 0.483 ± 0.043
0.1 µM, coculture fibroblast: HMF | 0.879 ± 0.036 | 0.858 ± 0.061 | 0.856 ± 0.1 | 0.84 ± 0.094 | 0.772 ± 0.068 | 0.747 ± 0.045 | 0.718 ± 0.036 | 0.706 ± 0.018 | 0.701 ± 0.0088
0.1 µM, coculture fibroblast: HPFa | 0.924 ± 0.032 | 0.825 ± 0.039 | 0.778 ± 0.045 | 0.705 ± 0.05 | 0.668 ± 0.043 | 0.64 ± 0.047 | 0.607 ± 0.053 | 0.596 ± 0.053 | 0.57 ± 0.06
0.1 µM, coculture fibroblast: HUF | 0.908 ± 0.032 | 0.768 ± 0.032 | 0.764 ± 0.068 | 0.65 ± 0.095 | 0.585 ± 0.1 | 0.567 ± 0.1 | 0.539 ± 0.095 | 0.538 ± 0.081 | 0.537 ± 0.077
0.1 µM, coculture fibroblast: Hs27A | 0.909 ± 0.013 | 0.8149 ± 0.0018 | 0.763 ± 0.025 | 0.688 ± 0.026 | 0.621 ± 0.043 | 0.604 ± 0.041 | 0.573 ± 0.042 | 0.566 ± 0.055 | 0.531 ± 0.065
0.1 µM, coculture fibroblast: Hs343T | 0.87 ± 0.014 | 0.784 ± 0.015 | 0.734 ± 0.025 | 0.692 ± 0.017 | 0.608 ± 0.0087 | 0.571 ± 0.015 | 0.545 ± 0.0061 | 0.524 ± 0.0097 | 0.543 ± 0.008
0.1 µM, coculture fibroblast: WS1 | 0.83 ± 0.0055 | 0.715 ± 0.013 | 0.69 ± 0.021 | 0.589 ± 0.0072 | 0.5283 ± 0.00054 | 0.51004 ± 0.0002 | 0.474 ± 0.005 | 0.474 ± 0.005 | 0.475 ± 0.0038
1 µM, coculture fibroblast: C12385 | 0.818 ± 0.019 | 0.7134 ± 0.007 | 0.69049 ± 0.00051 | 0.5848 ± 0.003 | 0.529 ± 0.00085 | 0.503 ± 0.016 | 0.477 ± 0.02 | 0.48 ± 0.014 | 0.49 ± 0.017
1 µM, coculture fibroblast: H6013 | 0.888 ± 0.024 | 0.891 ± 0.018 | 0.86 ± 0.03 | 0.812 ± 0.045 | 0.766 ± 0.04 | 0.757 ± 0.061 | 0.733 ± 0.086 | 0.738 ± 0.092 | 0.726 ± 0.096
1 µM, coculture fibroblast: H6019 | 0.754 ± 0.013 | 0.705 ± 0.016 | 0.71 ± 0.013 | 0.624 ± 0.0065 | 0.59 ± 0.0066 | 0.5796 ± 0.0011 | 0.567 ± 0.012 | 0.563 ± 0.019 | 0.553 ± 0.027
1 µM, coculture fibroblast: H6076 | 0.8629 ± 0.0015 | 0.799 ± 0.0089 | 0.772 ± 0.026 | 0.758 ± 0.061 | 0.702 ± 0.07 | 0.698 ± 0.077 | 0.7 ± 0.079 | 0.689 ± 0.076 | 0.7 ± 0.093
1 µM, coculture fibroblast: H6231 | 0.8765 ± 0.005 | 0.7846 ± 0.0075 | 0.7295 ± 0.0055 | 0.684 ± 0.016 | 0.612 ± 0.024 | 0.59 ± 0.031 | 0.565 ± 0.028 | 0.548 ± 0.024 | 0.558 ± 0.031
1 µM, coculture fibroblast: HADF | 0.901 ± 0.023 | 0.833 ± 0.024 | 0.781 ± 0.016 | 0.711 ± 0.016 | 0.656 ± 0.013 | 0.6295 ± 0.0016 | 0.5951 ± 0.00081 | 0.59 ± 0.017 | 0.573 ± 0.03
1 µM, coculture fibroblast: HCFa | 0.83 ± 0.014 | 0.781 ± 0.0082 | 0.731 ± 0.0088 | 0.673 ± 0.019 | 0.619 ± 0.021 | 0.608 ± 0.034 | 0.587 ± 0.042 | 0.578 ± 0.043 | 0.559 ± 0.04
1 µM, coculture fibroblast: HCPF | 0.904 ± 0.016 | 0.803 ± 0.024 | 0.76583 ± 0.00068 | 0.7313 ± 0.0029 | 0.669 ± 0.026 | 0.628 ± 0.051 | 0.631 ± 0.066 | 0.596 ± 0.084 | 0.591 ± 0.082
1 µM, coculture fibroblast: HHSteC | 0.858 ± 0.013 | 0.8142 ± 0.0013 | 0.7598 ± 0.0011 | 0.685 ± 0.018 | 0.618 ± 0.022 | 0.577 ± 0.032 | 0.55 ± 0.041 | 0.52 ± 0.031 | 0.494 ± 0.034
1 µM, coculture fibroblast: HMF | 0.86 ± 0.074 | 0.779 ± 0.046 | 0.735 ± 0.0097 | 0.694 ± 0.02 | 0.596 ± 0.041 | 0.557 ± 0.052 | 0.536 ± 0.064 | 0.512 ± 0.055 | 0.513 ± 0.053
1 µM, coculture fibroblast: HPFa | 0.934 ± 0.05 | 0.858 ± 0.065 | 0.806 ± 0.085 | 0.718 ± 0.094 | 0.642 ± 0.086 | 0.609 ± 0.088 | 0.567 ± 0.088 | 0.549 ± 0.096 | 0.513 ± 0.098
1 µM, coculture fibroblast: HUF | 0.884 ± 0.03 | 0.748 ± 0.056 | 0.742 ± 0.049 | 0.621 ± 0.044 | 0.556 ± 0.051 | 0.527 ± 0.055 | 0.497 ± 0.046 | 0.495 ± 0.045 | 0.497 ± 0.04
1 µM, coculture fibroblast: Hs27A | 0.925 ± 0.026 | 0.87296 ± 0.0005 | 0.812 ± 0.022 | 0.771 ± 0.048 | 0.726 ± 0.082 | 0.718 ± 0.099 | 0.689 ± 0.11 | 0.682 ± 0.11 | 0.642 ± 0.11
1 µM, coculture fibroblast: Hs343T | 0.845 ± 0.012 | 0.744 ± 0.016 | 0.69 ± 0.0029 | 0.6479 ± 0.0045 | 0.563 ± 0.017 | 0.537 ± 0.0089 | 0.517 ± 0.0099 | 0.512 ± 0.0061 | 0.5296 ± 0.0037
1 µM, coculture fibroblast: WS1 | 0.783 ± 0.031 | 0.726 ± 0.021 | 0.671 ± 0.055 | 0.569 ± 0.088 | 0.501 ± 0.12 | 0.478 ± 0.13 | 0.454 ± 0.13 | 0.462 ± 0.15 | 0.465 ± 0.16

— the supplement of paper PMC6078165
